According to paper doi:10.1101/392415:
These are yes or no findings as the source states them, for the method shown. For some assays here: Binding seen in cells or lysates may run through a third protein. Some results given as binding are weak or reduced against the parent protein; the word gives no strength. For some assays here: Tags and fused reporters may be left off the sequences shown. Blank lines part the entries; values can stand above or below the binder they belong to.

Tests used:
[1] = target: T1, Polη D570A mutant (inactive UBZ domain), yeast two-hybrid fusion (S. cerevisiae) (UniProt Q04049); test: two-hybrid
T1 sequence: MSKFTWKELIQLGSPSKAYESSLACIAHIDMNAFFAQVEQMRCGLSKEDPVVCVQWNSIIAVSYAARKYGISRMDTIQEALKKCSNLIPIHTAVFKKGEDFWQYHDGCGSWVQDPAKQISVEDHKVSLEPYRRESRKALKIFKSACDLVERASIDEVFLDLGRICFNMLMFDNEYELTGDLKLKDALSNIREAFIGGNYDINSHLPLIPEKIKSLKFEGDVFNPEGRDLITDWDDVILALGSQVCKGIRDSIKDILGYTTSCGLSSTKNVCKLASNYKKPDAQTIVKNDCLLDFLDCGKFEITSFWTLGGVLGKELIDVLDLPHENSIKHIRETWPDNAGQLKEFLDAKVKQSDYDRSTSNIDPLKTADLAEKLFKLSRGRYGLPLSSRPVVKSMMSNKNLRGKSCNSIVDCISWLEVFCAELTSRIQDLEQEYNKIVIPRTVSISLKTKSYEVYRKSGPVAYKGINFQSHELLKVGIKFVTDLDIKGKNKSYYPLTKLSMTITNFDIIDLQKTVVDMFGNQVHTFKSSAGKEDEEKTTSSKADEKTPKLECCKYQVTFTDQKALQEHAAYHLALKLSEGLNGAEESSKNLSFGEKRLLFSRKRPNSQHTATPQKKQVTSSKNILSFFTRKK

[2] = target: T2, DNA polymerase η (Polη), Gal4BD fusion from pGBKT7-RAD30 (S. cerevisiae) (UniProt Q04049); test: two-hybrid
T2 sequence: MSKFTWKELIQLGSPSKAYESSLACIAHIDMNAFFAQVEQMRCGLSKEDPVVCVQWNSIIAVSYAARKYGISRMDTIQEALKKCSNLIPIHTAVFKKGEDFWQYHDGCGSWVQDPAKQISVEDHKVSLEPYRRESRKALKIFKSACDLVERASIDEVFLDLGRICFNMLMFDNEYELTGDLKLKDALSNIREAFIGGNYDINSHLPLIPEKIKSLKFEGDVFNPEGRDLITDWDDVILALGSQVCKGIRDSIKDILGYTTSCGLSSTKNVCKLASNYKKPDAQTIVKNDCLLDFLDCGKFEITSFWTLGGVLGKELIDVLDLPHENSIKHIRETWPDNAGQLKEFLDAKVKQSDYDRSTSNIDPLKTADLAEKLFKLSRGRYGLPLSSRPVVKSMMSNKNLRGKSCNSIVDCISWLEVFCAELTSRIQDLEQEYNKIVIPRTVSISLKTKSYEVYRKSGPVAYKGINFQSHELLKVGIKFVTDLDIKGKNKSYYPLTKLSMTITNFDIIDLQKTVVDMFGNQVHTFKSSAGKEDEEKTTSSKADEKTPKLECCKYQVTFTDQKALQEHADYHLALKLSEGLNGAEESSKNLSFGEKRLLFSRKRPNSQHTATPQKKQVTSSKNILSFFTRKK

[3] = target: T3, DNA polymerase η (Polη), expressed in S. cerevisiae for co-immunoprecipitation (S. cerevisiae) (UniProt Q04049); test: co-IP
T3 sequence: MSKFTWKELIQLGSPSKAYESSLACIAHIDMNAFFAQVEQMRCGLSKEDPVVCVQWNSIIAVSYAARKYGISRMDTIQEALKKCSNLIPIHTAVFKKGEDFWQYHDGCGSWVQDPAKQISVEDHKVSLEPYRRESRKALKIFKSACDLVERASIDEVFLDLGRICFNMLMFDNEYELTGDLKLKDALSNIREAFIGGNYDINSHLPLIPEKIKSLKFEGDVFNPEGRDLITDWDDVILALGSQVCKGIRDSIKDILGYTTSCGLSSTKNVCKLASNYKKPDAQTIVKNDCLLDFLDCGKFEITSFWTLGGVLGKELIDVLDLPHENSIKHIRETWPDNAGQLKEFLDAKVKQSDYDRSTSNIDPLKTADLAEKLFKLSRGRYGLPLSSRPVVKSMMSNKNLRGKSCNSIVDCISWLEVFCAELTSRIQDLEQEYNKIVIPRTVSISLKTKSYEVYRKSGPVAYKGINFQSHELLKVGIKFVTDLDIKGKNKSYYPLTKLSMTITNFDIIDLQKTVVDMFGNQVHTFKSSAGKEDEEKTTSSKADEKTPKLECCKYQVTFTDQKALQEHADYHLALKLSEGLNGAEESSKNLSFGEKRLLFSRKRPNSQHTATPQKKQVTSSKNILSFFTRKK

[4] = target: T4, Lsm12, yeast two-hybrid fusion tested against Ubp3 (S. cerevisiae) (UniProt P38828); test: two-hybrid
T4 sequence: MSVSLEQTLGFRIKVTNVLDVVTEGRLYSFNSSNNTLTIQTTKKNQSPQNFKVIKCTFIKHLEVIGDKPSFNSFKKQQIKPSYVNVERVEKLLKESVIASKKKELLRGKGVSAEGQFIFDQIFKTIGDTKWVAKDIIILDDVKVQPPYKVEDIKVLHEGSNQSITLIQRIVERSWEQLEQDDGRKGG

[5] = target: T5, Lsm12, expressed in S. cerevisiae for co-immunoprecipitation (S. cerevisiae) (UniProt P38828); test: co-IP
T5 sequence: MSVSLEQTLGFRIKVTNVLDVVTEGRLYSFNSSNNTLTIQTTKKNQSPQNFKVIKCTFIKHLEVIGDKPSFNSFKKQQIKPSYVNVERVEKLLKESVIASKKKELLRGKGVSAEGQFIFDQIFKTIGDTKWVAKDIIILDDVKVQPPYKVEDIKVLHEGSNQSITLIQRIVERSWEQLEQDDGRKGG

- binding [3]: binds
B2: Lsm12, expressed in S. cerevisiae for co-immunoprecipitation (protein, UniProt P38828 1-187)
chain: MSVSLEQTLGFRIKVTNVLDVVTEGRLYSFNSSNNTLTIQTTKKNQSPQNFKVIKCTFIKHLEVIGDKPSFNSFKKQQIKPSYVNVERVEKLLKESVIASKKKELLRGKGVSAEGQFIFDQIFKTIGDTKWVAKDIIILDDVKVQPPYKVEDIKVLHEGSNQSITLIQRIVERSWEQLEQDDGRKGG

- binding [5]: binds
B4: Ubp3, expressed in S. cerevisiae for co-immunoprecipitation (enzyme, UniProt Q01477 1-912)
chain: MNMQDANKEESYSMYPKTSSPPPPTPTNMQIPIYQAPLQMYGYTQAPYLYPTQIPAYSFNMVNQNQPIYHQSGSPHHLPPQNNINGGSTTNNNNINKKKWHSNGITNNNGSSGNQGANSSGSGMSYNKSHTYHHNYSNNHIPMMASPNSGSNAGMKKQTNSSNGNGSSATSPSYSSYNSSSQYDLYKFDVTKLKNLKENSSNLIQLPLFINTTEAEFAAASVQRYELNMKALNLNSESLENSSVEKSSAHHHTKSHSIPKHNEEVKTETHGEEEDAHDKKPHASKDAHELKKKTEVKKEDAKQDRNEKVIQEPQATVLPVVDKKEPEESVEENTSKTSSPSPSPPAAKSWSAIASDAIKSRQASNKTVSGSMVTKTPISGTTAGVSSTNMAAATIGKSSSPLLSKQPQKKDKKYVPPSTKGIEPLGSIALRMCFDPDFISYVLRNKDVENKIPVHSIIPRGIINRANICFMSSVLQVLLYCKPFIDVINVLSTRNTNSRVGTSSCKLLDACLTMYKQFDKETYEKKFLENADDAEKTTESDAKKSSKSKSFQHCATADAVKPDEFYKTLSTIPKFKDLQWGHQEDAEEFLTHLLDQLHEELISAIDGLTDNEIQNMLQSINDEQLKVFFIRNLSRYGKAEFIKNASPRLKELIEKYGVINDDSTEENGWHEVSGSSKRGKKTKTAAKRTVEIVPSPISKLFGGQFRSVLDIPNNKESQSITLDPFQTIQLDISDAGVNDLETAFKKFSEYELLPFKSSSGNDVEAKKQTFIDKLPQVLLIQFKRFSFINNVNKDNAMTNYNAYNGRIEKIRKKIKYGHELIIPEESMSSITLKNNTSGIDDRRYKLTGVIYHHGVSSDGGHYTADVYHSEHNKWYRIDDVNITELEDDDVLKGGEEASDSRTAYILMYQKRN

The next lines start with the binder.

B1: Lsm12, Gal4AD fusion from pGADT7-LSM12 (protein, UniProt P38828 1-187)
chain: MSVSLEQTLGFRIKVTNVLDVVTEGRLYSFNSSNNTLTIQTTKKNQSPQNFKVIKCTFIKHLEVIGDKPSFNSFKKQQIKPSYVNVERVEKLLKESVIASKKKELLRGKGVSAEGQFIFDQIFKTIGDTKWVAKDIIILDDVKVQPPYKVEDIKVLHEGSNQSITLIQRIVERSWEQLEQDDGRKGG
- binding [1]: no binding
- binding [2]: binds

B3: Ubp3, Gal4AD fusion from pGADT7-UBP3 (enzyme, UniProt Q01477 1-912)
chain: MNMQDANKEESYSMYPKTSSPPPPTPTNMQIPIYQAPLQMYGYTQAPYLYPTQIPAYSFNMVNQNQPIYHQSGSPHHLPPQNNINGGSTTNNNNINKKKWHSNGITNNNGSSGNQGANSSGSGMSYNKSHTYHHNYSNNHIPMMASPNSGSNAGMKKQTNSSNGNGSSATSPSYSSYNSSSQYDLYKFDVTKLKNLKENSSNLIQLPLFINTTEAEFAAASVQRYELNMKALNLNSESLENSSVEKSSAHHHTKSHSIPKHNEEVKTETHGEEEDAHDKKPHASKDAHELKKKTEVKKEDAKQDRNEKVIQEPQATVLPVVDKKEPEESVEENTSKTSSPSPSPPAAKSWSAIASDAIKSRQASNKTVSGSMVTKTPISGTTAGVSSTNMAAATIGKSSSPLLSKQPQKKDKKYVPPSTKGIEPLGSIALRMCFDPDFISYVLRNKDVENKIPVHSIIPRGIINRANICFMSSVLQVLLYCKPFIDVINVLSTRNTNSRVGTSSCKLLDACLTMYKQFDKETYEKKFLENADDAEKTTESDAKKSSKSKSFQHCATADAVKPDEFYKTLSTIPKFKDLQWGHQEDAEEFLTHLLDQLHEELISAIDGLTDNEIQNMLQSINDEQLKVFFIRNLSRYGKAEFIKNASPRLKELIEKYGVINDDSTEENGWHEVSGSSKRGKKTKTAAKRTVEIVPSPISKLFGGQFRSVLDIPNNKESQSITLDPFQTIQLDISDAGVNDLETAFKKFSEYELLPFKSSSGNDVEAKKQTFIDKLPQVLLIQFKRFSFINNVNKDNAMTNYNAYNGRIEKIRKKIKYGHELIIPEESMSSITLKNNTSGIDDRRYKLTGVIYHHGVSSDGGHYTADVYHSEHNKWYRIDDVNITELEDDDVLKGGEEASDSRTAYILMYQKRN
- binding [4]: binds
